Laboratory results taken from the supplement of paper PMC10338343.
± gives the standard deviation. The entries are a selection whose mix differs from that of the whole data set. Many of these values have a large error. The list shows a part of the results.

The sequences below were run on MILI (PIWIL2) piRISC loaded with L1MC piRNA (26 nt) (assay: pre-steady-state target cleavage rate (min^-1); higher = faster piRNA-guided slicing of the target). Settings: guide: L1MC piRNA 5'p-UAACUAAAUACUAUGCAAGCUGUAGG; auxiliary factor: 500 nM mouse GTSF1.
In short: (§1)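 The pre-steady-state cleavage rate was calculated from a burst-and-steady-state fit. Data came from Cleave-'n-Seq, in which […] transcribed, DNA-blocked target RNA library was mixed with 1 nM active affinity-purified piRISC carrying one synthetic guide, with or without 500 nM GTSF1 partner protein, in HEPES–potassium acetate buffer at 33 °C for 0–8 or 0–960 min. Uncleaved targets were sequenced and normalised to depth and to weakly complementary targets, three trials were pooled, and k3 was capped at 0.0001 min^-1.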

| Sequence | pre-steady-state target cleavage rate |
| --- | --- |
| UCCUGGAUCAGCUAGCAUAGUAAUUAGUUA | 0.152 ± 0.015 |
| UCCUGGAACAGCUUGCAUAGUAGUUAGUUA | 0.138 ± 0.018 |
| UCCUGGUACAGCUUGCAUAGAAUUUAGUUA | 0.229 ± 0.08 |
| UCCUGCUACAGCUUGCAUAGUAUUUACUUA | 0.171 ± 0.032 |
| UCCUCCUAGAGCUUGCAUAGAAUUUAGUUA | 0.0513 ± 0.0099 |
| UCCUCCUACAGCUUGCAUAGUUAUUUAGUUA | 0.0152 ± 0.0067 |
| UCCUGCUACAGCUUGCAUAGUAUAUAGUUA | 0.227 ± 0.029 |
| UCCUGGAUGUGCUUGCAUAGUAUAAAGUUA | 0.0611 ± 0.011 |
| UCCUGCUACAGCUUGGCAUAGUAUUUAGUUA | 0.307 ± 0.051 |
| UCCUGCUACUAGCUUGCAUAGUAUUUAGUUA | 0.176 ± 0.022 |
| UCCUGGAUGAUGCUUGCAUAGUAUUUAGUUA | 0.228 ± 0.023 |
| UCCUGGUACCAGCUUGCAUAGUAUUUAGUUA | 0.276 ± 0.043 |
| UCCUGGAUGAGCUUGCAUAGGAUUUAGUUA | 0.00241 ± 0.0044 |
| UCCUCCUACAGCUGGCAUAGUAUUUAGUUA | 0.294 ± 0.02 |
| UCCUGGAUGAGCUUGCAUAGUUUUUAGAAA | 0.00151 ± 0.0079 |
| UCCUCCUACAGCUUGCAUAGUAUUUACGUUA | 0.265 ± 0.029 |
| UCCUACUACAGCUUGCAUAGUAUUUAGUUA | 0.294 ± 0.02 |
| UCCUCCUAGUGCUUGCAUAGUAUUUAGUAA | 0.114 ± 0.019 |
| UCCUCCUACAGCUUGCAUAGUAGUUUAGUUA | 0.23 ± 0.022 |
| UCCUGGAUGAGCUAGCAUACUAUUUAGUUA | 0.0848 ± 0.017 |
| UCCUGGUACAGCUUGCAUAGUAUAUUAGUUA | 0.26 ± 0.039 |
| UCCUGCUACAGCUUGCAUACUAUUUACUUA | 0.0359 ± 0.011 |
| UCCUGGAACAGCUAGCAUAGUAUUAAGUUA | 0.192 ± 0.015 |
| UCCUGGUACAGGUAGCAUAGUAUUUAGUUA | 0.21 ± 0.021 |
| UCCUGGAUCAGCUUGCAUAGUAUUUUCAUA | 0.0451 ± 0.011 |
| UCCUCCUACAGUUUGCAUAGUAUUUAGUUA | 0.299 ± 0.013 |
| UCCUCCUACAGCUAGCUUAGUAUUUAGUUA | 0.206 ± 0.017 |
| UCCUGGAUGUGCUUGCAUAGAAUUUUGUUA | 0.00435 ± 0.0052 |

Same assay, conditions: guide: L1MC piRNA 5'p-UAACUAAAUACUAUGCAAGCUGUAGG; auxiliary factor: none (no GTSF1)

| Sequence | pre-steady-state target cleavage rate |
| --- | --- |
| UCCUGGAUCAGCUAGCAUAGUAAUUAGUUA | 0.00502 ± 0.0022 |
| UCCUGGAACAGCUUGCAUAGUAGUUAGUUA | 0.00378 ± 0.0026 |
| UCCUGGAUCAGCUUGCUUAGAAUUUAGUUA | 0.00161 ± 0.0032 |
| UCCUGGUACAGCUUGCAUAGAAUUUAGUUA | 0.00318 ± 0.0042 |
| UCCUGCUACAGCUUGCAUAGUAUUUACUUA | 0.00233 ± 0.0038 |
| UCCUCCUAGAGCUUGCAUAGAAUUUAGUUA | 0.00171 ± 0.0033 |
| UCCUCCUACAGCUUGCAUAGUUAUUUAGUUA | 0.00383 ± 0.0024 |
| UCCUGCUACAGCUUGCAUAGUAUAUAGUUA | 0.00382 ± 0.0029 |
| UCCUGGAUGUGCUUGCAUAGUAUAAAGUUA | 0.00318 ± 0.0025 |
| UCCUGCUACUAGCUUGCAUAGUAUUUAGUUA | 0.0074 ± 0.0023 |
| UCCUGGAUGAUGCUUGCAUAGUAUUUAGUUA | 0.00923 ± 0.0034 |
| UCCUGGUACCAGCUUGCAUAGUAUUUAGUUA | 0.00866 ± 0.0047 |
| UCCUGCUUGUGCUUGCAUAGUAUUUACAAA | 0.00111 ± 0.0048 |
| UCCUGGAUGAGCUUGCAUAGGAUUUAGUUA | 0.00137 ± 0.0046 |
| UCCUGGAACAGCUUGCAUAGUAUUUACAUA | 0.00143 ± 0.0053 |
| UCCUGGUACAGCUUGCAUAGAAUUUAGAUA | 0.00143 ± 0.0053 |
| UCCUGGAUCAGCUUGCAUAGAAUUAAGUUA | 0.0015 ± 0.0038 |
| UCCUCCAACAGCUUGCAUAGAAUUUAGUUA | 0.00235 ± 0.0025 |

| Sequence | pre-steady-state target cleavage rate |
| --- | --- |
| UCCUGGAUGAGCUUGCAUAGUUUUUAGAAA | 0.000767 ± 0.0091 |
| UCCUCCUACAGCUUGCAUAGUAUUUACGUUA | 0.00757 ± 0.0026 |
| UCCUACUACAGCUUGCAUAGUAUUUAGUUA | 0.00883 ± 0.0027 |
| UCCUCCUAGUGCUUGCAUAGUAUUUAGUAA | 0.00146 ± 0.0032 |
| UCCUCCUACAGCUUGCAUAGUAGUUUAGUUA | 0.007 ± 0.0022 |
| UCCUGGAUGAGCUAGCAUACUAUUUAGUUA | 0.00398 ± 0.0027 |
| UCCUGGUACAGCUUGCAUAGUAUAUUAGUUA | 0.0117 ± 0.0038 |
| UCCUGCUACAGCUUGCAUACUAUUUACUUA | 0.00132 ± 0.0051 |
| UCCUGGAUGUCGUUGCUUAGUAUUAAGUUA | 0.00176 ± 0.0049 |
| UCCUCCUACAGCUUGCAUAGUAUUUUGAAA | 0.00213 ± 0.0037 |
| UCCUGGAACAGCUAGCAUAGUAUUAAGUUA | 0.00356 ± 0.0025 |
| UCCUGGUACAGGUAGCAUAGUAUUUAGUUA | 0.00976 ± 0.0036 |
| UCCUGGAUCAGCUUGCAUAGUAUUUUCAUA | 0.00167 ± 0.003 |
| UCCUCCUACACCUUGCAUAGUAUUAAGUUA | 0.00187 ± 0.0034 |
| UCCUCCUACAGCUUGCAUAGCAUUUAGUUA | 0.00232 ± 0.0026 |
| UCCUGGUACAGCUUGCAUAGAAUUUUGUUA | 0.00193 ± 0.0064 |
| UCCUCCUACAGCUAGCUUAGUAUUUAGUUA | 0.00491 ± 0.0019 |
| UCCUGGAUGUGCUUGCAUAGAAUUUUGUUA | 0.00128 ± 0.0063 |

The sequences below were run on EfPiwi piRISC loaded with L1MC piRNA (26 nt) (assay: pre-steady-state target cleavage rate (min^-1); guide: L1MC piRNA 5'p-UAACUAAAUACUAUGCAAGCUGUAGG; MIWI and MILI are mouse PIWI proteins and EfPiwi is from a freshwater sponge; tags in brackets are library labels; higher = faster piRNA-guided slicing of the target). Settings: auxiliary factor: 500 nM Ephydatia muelleri Gtsf1.
In short: as §1

| Sequence | pre-steady-state target cleavage rate |
| --- | --- |
| UCCUGGAACAGCUUGCAUAGUAGUUAGUUA | 0.00926 ± 0.0027 |
| UCCUGGAUCAGCUUGCUUAGAAUUUAGUUA | 0.000695 ± 0.0044 |
| UCCUGGUACAGCUUGCAUAGAAUUUAGUUA | 0.00314 ± 0.0023 |
| UCCUGCUACAGCUUGCAUAGUAUUUACUUA | 0.00356 ± 0.0027 |
| UCCUCCUAGAGCUUGCAUAGAAUUUAGUUA | 0.00468 ± 0.0013 |
| UCCUCCUACAGCUUGCAUAGUUAUUUAGUUA | 0.00556 ± 0.0031 |
| UCCUGCUACAGCUUGCAUAGUAUAUAGUUA | 0.00448 ± 0.0019 |
| UCCUGCUACAGCUUGGCAUAGUAUUUAGUUA | 0.00928 ± 0.0031 |
| UCCUGCUACUAGCUUGCAUAGUAUUUAGUUA | 0.00699 ± 0.0025 |
| UCCUGGAUGAUGCUUGCAUAGUAUUUAGUUA | 0.0738 ± 0.022 |
| UCCUGGUACCAGCUUGCAUAGUAUUUAGUUA | 0.0109 ± 0.0044 |
| UCCUGCUUGUGCUUGCAUAGUAUUUACAAA | 0.00208 ± 0.003 |
| UCCUGGAUGAGCUUGCAUAGGAUUUAGUUA | 0.00113 ± 0.0033 |
| UCCUGGAACAGCUUGCAUAGUAUUUACAUA | 0.00316 ± 0.0025 |
| UCCUGGUACAGCUUGCAUAGAAUUUAGAUA | 0.00171 ± 0.0037 |
| UCCUGGAUCAGCUUGCAUAGAAUUAAGUUA | 0.0017 ± 0.0019 |

| Sequence | pre-steady-state target cleavage rate |
| --- | --- |
| UCCUCCUACAGCUGGCAUAGUAUUUAGUUA | 0.0728 ± 0.02 |
| UCCUCCUACAGCUUGCAUAGUAUUUACGUUA | 0.00783 ± 0.0029 |
| UCCUACUACAGCUUGCAUAGUAUUUAGUUA | 0.0579 ± 0.018 |
| UCCUCCUAGUGCUUGCAUAGUAUUUAGUAA | 0.00468 ± 0.002 |
| UCCUCCUACAGCUUGCAUAGUAGUUUAGUUA | 0.0131 ± 0.0052 |
| UCCUGGAUGAGCUAGCAUACUAUUUAGUUA | 0.00286 ± 0.002 |
| UCCUGGAUGUCGUUGCUUAGUAUUAAGUUA | 0.000189 ± 0.014 |
| UCCUCCUACAGCUUGCAUAGUAUUUUGAAA | 0.00602 ± 0.0032 |
| UCCUGGAACAGCUAGCAUAGUAUUAAGUUA | 0.0146 ± 0.0061 |
| UCCUGGUACAGGUAGCAUAGUAUUUAGUUA | 0.00853 ± 0.0036 |
| UCCUCCUACACCUUGCAUAGUAUUAAGUUA | 0.00451 ± 0.0025 |
| UCCUCCUACAGCUUGCAUAGCAUUUAGUUA | 0.00463 ± 0.0019 |
| UCCUCCUACAGUUUGCAUAGUAUUUAGUUA | 0.0845 ± 0.021 |
| UCCUGGUACAGCUUGCAUAGAAUUUUGUUA | 0.00212 ± 0.0026 |
| UCCUCCUACAGCUAGCUUAGUAUUUAGUUA | 0.00997 ± 0.0038 |
| UCCUGGAUGUGCUUGCAUAGAAUUUUGUUA | 0.000495 ± 0.0069 |
